Measured values as given in PubChem BioAssay AID2685 (National Center for Advancing Translational Sciences (NCATS), 2010).
The list shows a part of the results. Further columns of the screen follow, without active or inactive calls. Compounds called inactive in the main read-out are mostly missing here. Words in brackets tell the shape of the fitted curve; partial curves, single points and poor fits give uncertain potencies.

Experiment: qHTS Assay for Lipid Storage Modulators in Drosophila S3 Cells;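 for cell number change: cells counted by Cell Tracker Red CMTPX staining in the red channel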
Conditions: BODIPY lipid droplet fluorescence, 18-24 h; for cell number change: measured here: cell count max response, cells fed with added oleic acid
Summary of the method: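 Drosophila S3 cells loaded with oleic acid (400 uM, as added) and compounds at several concentrations; lipid droplets imaged by 488-nm laser-scanning cytometry, 500–530 nm intensity and object ratio to cell channel. Percent activity normalized to 20 uM Triacsin C.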

[1] = measured here: cell number channel AC50, cells fed with added oleic acid
[2] = measured here: lipid fluorescence (Fed channel) AC50, cells fed with added oleic acid

Row | Compound | cell number change [%] | AC50 [1] | AC50 [2]
1 | O=C(CC1C(=O)NCCN1Cc1ccccc1C(F)(F)F)NCCN1CCCCC1=O (stereo not drawn) | -37.5 | 29.1 µM [falling, single point] | –
2 | CC(=O)Nc1cccc(C(=O)Nc2ccccc2N2CCOCC2)c1 | 83.7 | 5.17 µM [rising, partial curve] | –
3 | Cc1ccc(Sc2nc(C)c([N+](=O)[O-])c(C)c2C#N)cc1 | 28.7 | – | 3.66 µM [rising, single point]
4 | O=C(CC1CCCC1)NCCc1cn2ccccc2n1 | -13 | 1.84 µM [falling, full curve, poor fit] | 29.1 µM [falling, single point]
5 | COc1ccc(C(=O)/C=C/c2cn(CN3CCN(C)CC3)c3ccccc23)cc1 | -146 | – | 0.231 µM [falling, full curve, poor fit]
6 | O=C(O)c1cccc(-c2ccc(/C=N/Nc3nn[nH]n3)o2)c1 | -11.7 | 0.00461 µM [falling, full curve, poor fit] | 4.11 µM [falling, full curve, poor fit]
7 | COc1ccc(NC(=O)c2sc(NC(=O)COc3ccccc3)nc2C)cc1 | 22.4 | – | –
8 | COc1ccc(NC(=O)c2cnn(-c3ccccc3)c2C)c(OC)c1 | -11.3 | – | 0.58 µM [falling, single point]
9 | CCOc1ccc(C2/C(=C(/O)c3ccc4c(c3)CC(C)O4)C(=O)C(=O)N2CC2CCCO2)cc1 (stereo not drawn) | -19.5 | – | 29.1 µM [rising, single point]
10 | COC(=O)[C@H](Cc1ccccc1)NS(=O)(=O)N[C@@H](Cc1ccccc1)C(=O)OC | -0.245 | – | 10.3 µM [rising, partial curve]
11 | O=C(Nc1ccn(Cc2ccc(Cl)cc2)n1)c1ccc2c(c1)OCO2 | 86.1 | 18.4 µM [rising, single point] | –
12 | CC(C)c1ccccc1NC(=O)CNCCc1ccc(C(F)(F)F)cc1 | -34.9 | 14.6 µM [falling, single point] | 29.1 µM [falling, single point]
13 | CNCc1cc2ccc(C)cc2[nH]c1=O | 2.03 | – | –
14 | Cn1c(CCNC(=O)C2CCCCC2)nc2cc(NC(=O)c3cccs3)ccc21 | 37.2 | 4.11 µM [rising, full curve, poor fit] | 0.411 µM [rising, full curve, poor fit]
15 | COc1ccc(Cc2nnc(SCc3nc4ccccc4c(=O)[nH]3)n2C)cc1 | -2.7 | – | –
16 | Cc1cc([N+](=O)[O-])ccc1NC(=O)CSc1nccc(=O)[nH]1 | 3.05 | 0.146 µM [falling, full curve, poor fit] | 8.2 µM [falling, partial curve]
17 | O=C1C=C(c2ccc3c(c2)OCO3)C[C@@H](c2ccc(Cl)cc2)C1 | -12.6 | 1.84 µM [falling, partial curve, poor fit] | 0.00461 µM [falling, full curve, poor fit]

2 entries from above, set out differently:
Row,Compound,cell number change [%],AC50 [1],AC50 [2]
11,O=C(Nc1ccn(Cc2ccc(Cl)cc2)n1)c1ccc2c(c1)OCO2,86.1,"18.4 µM [rising, single point]",–
12,CC(C)c1ccccc1NC(=O)CNCCc1ccc(C(F)(F)F)cc1,-34.9,"14.6 µM [falling, single point]","29.1 µM [falling, single point]"

Following part

Row | Compound | cell number change [%] | AC50 [1] | AC50 [2]
18 | O=C(Nc1ccc(Cl)c(Cl)c1)Nc1ccccc1NS(=O)(=O)c1cccs1 | -13 | – | 32.6 µM [falling, single point]
19 | CC1CCc2c(sc3ncn4c(SCC(=O)NCc5ccco5)nnc4c23)C1 (stereo not drawn) | 24.1 | 0.82 µM [rising, full curve, poor fit] | –
20 | O=C(CCN1C(=O)c2ccccc2C1=O)OCN1C(=O)c2ccccc2C1=O | 2.13 | – | –
21 | O=C1c2ccccc2C(Nc2ccc(F)c(Cl)c2)N1Cc1ccco1 (stereo not drawn) | 11.1 | – | 5.17 µM [rising, partial curve, poor fit]
22 | O=C(NCc1ccco1)C1CN(S(=O)(=O)c2ccccc2)CCN1S(=O)(=O)c1ccccc1 (stereo not drawn) | 1.23 | – | 3.66 µM [rising, single point]
23 | COc1ccc(-c2nc(CN3CCN(c4ncnc5ccccc45)CC3)c(C)o2)c(OC)c1 | -45.2 | 16.4 µM [falling, partial curve, poor fit] | 0.103 µM [falling, full curve, poor fit]
24 | O=C(Nc1ccccc1Cl)c1cc2ccccc2o/c1=N\O | -25.3 | – | 6.51 µM [falling, single point]
25 | O=C(/C=C/c1cccc([N+](=O)[O-])c1)NC(=S)Nc1ccc(CN2CCOCC2)cc1 | -4.98 | – | 0.13 µM [falling, full curve, poor fit]
26 | CCc1nc(N2CCCC2C(=O)O)c2oc3ccccc3c2n1 (stereo not drawn) | -3.69 | – | 29.1 µM [falling, partial curve, poor fit]
27 | CCOc1ccc2[nH]c(=O)c(CN(Cc3ccco3)Cc3nnnn3Cc3ccccc3)cc2c1 | 19 | – | 2.31 µM [rising, partial curve]
28 | C#CCOCCOCCOCCNc1nc(N2CCN(C(=O)CCCCCCCCCCNC(=O)Cn3cc(C[C@@H](C)O)nn3)CC2)nc(N2CCN(C(=O)CCCCCCCCCCNC(=O)Cn3cc(C[C@@H](C)O)nn3)CC2)n1 | 97.5 | 29.1 µM [rising, single point] | 14.6 µM [falling, partial curve, poor fit]
29 | N#Cc1c(N)nc(SCC(=O)OCc2ccccc2)c(C#N)c1-c1ccco1 | 92.8 | 13 µM [rising, partial curve] | –
30 | O=C(CCc1nnc(COc2ccccc2)o1)NCc1ccccc1C(F)(F)F | -25.6 | – | 20.6 µM [falling, single point]
31 | O=C(CS(=O)(=O)Cc1ccccc1)Nc1ncccn1 | -20.5 | – | 1.46 µM [falling, partial curve]
32 | Nc1nnc(SCc2ccc(F)cc2)s1 | 0.128 | – | 0.82 µM [falling, full curve, poor fit]
33 | Cc1cc(C)nc(NS(=O)(=O)c2ccc(CC(C)C)cc2)c1 | 15.4 | 0.103 µM [rising, full curve, poor fit] | 9.2 µM [rising, partial curve, poor fit]
34 | CCN(CC)c1nc(C#N)cc(-c2ccc(OC)cc2)n1 | -6.89 | – | 0.731 µM [falling, single point]
